Test systems include OR2J2 clone 1403; OR2J2 clone 1404; OR2K2 clone 1340; OR2K2 clone 1450; OR2L13 clone 1481; OR2L2 clone 1465; OR2L3 clone 1526; OR2L5 clone 1697.
Experiment in all cases: odorant receptor activation (CRE luciferase / Renilla) (fold of no-odor wells); higher = more activation
Holding throughout (details): 100 µM

The test system of assay [1] is OR2J2 Y74H/T111A/V146A/T218A clone 1402.
In assay [2] the test system is OR2J3 I228V/M261I clone 1616.

Where “and” joins values, the source holds several entries; their conditions need not be identical. Equal entries are not always repeated. The list shows a part of the results. Single wells; the ratio to wells without odorant was worked out here, and repeats agree poorly.

With `COC(=O)c1ccccc1O` [methyl salicylate], the odorant receptor activation in [1] was found to be 1.12; in the assay with OR2J2 clone 1403, 1.16; in the assay with OR2J2 clone 1404, 1.43; in assay [2], 1.01; in the assay with OR2K2 clone 1340, 0.809; in the assay with OR2K2 clone 1450 it was 1.04. Also, the odorant receptor activation in the assay with OR2L13 clone 1481 turned out to be 0.8; in the assay with OR2L2 clone 1465, 0.985; in the assay on OR2L3 clone 1526, 1.02; with OR2L5 clone 1697, 0.846.
On to `O=C1CCCCCCCCCCCCCCO1` [pentadecalactone], for which the odorant receptor activation stood at 0.954 in [1]; 1.28 in the assay with OR2J2 clone 1403; 1.39 with OR2J2 clone 1404; 1.4 in [2]; 0.714 in the assay on OR2K2 clone 1340; 1.09 in the assay on OR2K2 clone 1450. Moreover, the odorant receptor activation in the assay on OR2L13 clone 1481 worked out at 1.07; in the assay with OR2L2 clone 1465 it was 1.21; with OR2L3 clone 1526 it was 0.702; in the assay on OR2L5 clone 1697, 0.917.
Regarding `CC(=O)OC(C)(C)C1CC=C(C)CC1` (stereo not given) [terpinyl acetate], the odorant receptor activation in assay [1] was 0.881; in the assay with OR2J2 clone 1403 it was 0.781; in the assay with OR2J2 clone 1404, 0.92; in assay [2] it was 0.814; in the assay with OR2K2 clone 1340 it was 0.674; with OR2K2 clone 1450 it was 0.806. Besides, the odorant receptor activation with OR2L13 clone 1481 is 0.881; in the assay on OR2L2 clone 1465 it was 1.19; with OR2L3 clone 1526, 1; in the assay on OR2L5 clone 1697 it was 1.06.
As to `C=CCc1ccc(O)c(OC)c1` [eugenol], the odorant receptor activation in assay [1] was 1.4 and 1.52; with OR2J2 clone 1403, 1.74 and 1.4; in the assay with OR2J2 clone 1404 it was 2.31 and 2.5; in [2], 2.23; in the assay on OR2K2 clone 1340, 1.41 and 1.43; in the assay on OR2K2 clone 1450 it was 1.5 and 1.14 and 1.32. Moreover, the odorant receptor activation with OR2L13 clone 1481 was 1.46 and 1.87 and 1.29; with OR2L2 clone 1465, 1.41 and 1.1 and 1.3; with OR2L3 clone 1526 it was 1.45 and 1.07 and 1.31; in the assay with OR2L5 clone 1697, 1.14.
For the compound `CC(C)C(=O)O` [isobutyric acid], the odorant receptor activation is 0.763 in assay [1]; 0.722 with OR2J2 clone 1403; 0.672 in the assay with OR2J2 clone 1404; 0.789 in [2]; 1.08 and 0.877 with OR2K2 clone 1340; 0.815 in the assay with OR2K2 clone 1450. For the same compound, the odorant receptor activation in the assay with OR2L13 clone 1481 was 1.16 and 0.955; in the assay on OR2L2 clone 1465 it was 1.05 and 0.795; in the assay on OR2L3 clone 1526, 0.977 and 0.777; in the assay with OR2L5 clone 1697, 0.834.
`CCCCCCOC(=O)CCC` [hexyl butyrate]: the odorant receptor activation in assay [1] is 0.747; with OR2J2 clone 1403 it was 0.852; in the assay with OR2J2 clone 1404, 0.802; in [2], 1.11; with OR2K2 clone 1340, 1.12 and 0.671; in the assay on OR2K2 clone 1450, 0.943. Also, the odorant receptor activation was 0.816 and 0.933 in the assay on OR2L13 clone 1481; 1.29 and 0.979 with OR2L2 clone 1465; 1.2 and 0.925 with OR2L3 clone 1526; 1.03 in the assay with OR2L5 clone 1697.
As for `CC/C=C\CCO` [cis-3-hexen-1-ol], the odorant receptor activation in assay [1] turned out to be 0.252; with OR2J2 clone 1403, 0.307; in the assay on OR2J2 clone 1404, 0.334; in assay [2], 1.06; with OR2K2 clone 1340, 1; in the assay on OR2K2 clone 1450 it was 0.179. In addition, the odorant receptor activation in the assay on OR2L13 clone 1481 amounted to 0.83; with OR2L2 clone 1465 it was 1.01; with OR2L3 clone 1526 it was 0.668; in the assay on OR2L5 clone 1697, 1.18.
Take `CCCCCCCCOC(C)=O` [octyl acetate]: the odorant receptor activation in assay [1] turned out to be 0.961; with OR2J2 clone 1403 it was 0.805; in the assay with OR2J2 clone 1404, 0.995; in assay [2], 2.1; with OR2K2 clone 1340, 1.12; in the assay on OR2K2 clone 1450, 0.8. For the same compound, the odorant receptor activation with OR2L13 clone 1481 worked out at 0.775; in the assay on OR2L2 clone 1465 it was 0.935; with OR2L3 clone 1526 it was 0.909; with OR2L5 clone 1697, 1.02.
Take `CCCCCCCC=O` [octyl aldehyde]: the odorant receptor activation in assay [1] was 0.769; with OR2J2 clone 1403, 0.756; with OR2J2 clone 1404 it was 0.97; in assay [2], 1.62; in the assay with OR2K2 clone 1340, 1.03; with OR2K2 clone 1450, 0.782. Besides, the odorant receptor activation was determined as 0.943 in the assay on OR2L13 clone 1481, 1.04 in the assay with OR2L2 clone 1465, 0.969 with OR2L3 clone 1526 and 0.818 with OR2L5 clone 1697.
Consider `C=CC(C)(O)CCC=C(C)C` (stereo not given) [linalool], for which the odorant receptor activation in [1] was found to be 0.876; in the assay with OR2J2 clone 1403, 0.979; in the assay with OR2J2 clone 1404, 0.839; in assay [2], 1; with OR2K2 clone 1340 it was 0.836; in the assay on OR2K2 clone 1450, 0.959. The odorant receptor activation in the assay on OR2L13 clone 1481 worked out at 0.736; with OR2L2 clone 1465, 1.08; in the assay with OR2L3 clone 1526 it was 1.02; in the assay with OR2L5 clone 1697, 0.817.
On to `CC(=O)OC1CC2CCC1(C)C2(C)C` (stereo not given) [isobornyl acetate], for which the odorant receptor activation in assay [1] was 0.864; with OR2J2 clone 1403, 0.887; in the assay with OR2J2 clone 1404 it was 0.932; in assay [2] it was 0.798; in the assay on OR2K2 clone 1340 it was 1.06 and 0.804; in the assay on OR2K2 clone 1450 it was 1.12. The odorant receptor activation is 1.07 and 0.987 with OR2L13 clone 1481; 1.08 and 1.44 in the assay on OR2L2 clone 1465; 1.06 and 1.08 in the assay on OR2L3 clone 1526; 0.913 in the assay on OR2L5 clone 1697.
Turning to `c1cnccn1` [pyrazine], the odorant receptor activation in assay [1] was found to be 0.973; with OR2J2 clone 1403, 1.31; with OR2J2 clone 1404, 1.36; in [2] it was 1.27; in the assay with OR2K2 clone 1340 it was 0.74; in the assay on OR2K2 clone 1450, 1.07. Also, the odorant receptor activation in the assay on OR2L13 clone 1481 turned out to be 0.745; with OR2L2 clone 1465, 1; with OR2L3 clone 1526 it was 0.683; with OR2L5 clone 1697 it was 0.958.
Take `CC12CCC(CC1)C(C)(C)O2` [cineole]: the odorant receptor activation in assay [1] worked out at 0.26; with OR2J2 clone 1403, 0.26; in the assay with OR2J2 clone 1404, 0.302; in assay [2], 1.12; in the assay with OR2K2 clone 1340, 1.06; in the assay on OR2K2 clone 1450 it was 0.182. Further, the odorant receptor activation with OR2L13 clone 1481 came to 0.956; with OR2L2 clone 1465, 0.931; in the assay with OR2L3 clone 1526 it was 0.815; in the assay on OR2L5 clone 1697 it was 0.965.
As to `CC(C)=CCCC(C)=CC=O` [citral], the odorant receptor activation was 0.319 in assay [1]; 0.294 with OR2J2 clone 1403; 0.517 with OR2J2 clone 1404; 7.34 in assay [2]; 1.15 in the assay on OR2K2 clone 1340; 0.246 in the assay with OR2K2 clone 1450. The odorant receptor activation in the assay with OR2L13 clone 1481 turned out to be 0.999; with OR2L2 clone 1465 it was 1.27; with OR2L3 clone 1526 it was 1.12; in the assay on OR2L5 clone 1697 it was 0.023.
Consider `CCCCCCCCC=O` [nonyl aldehyde], for which the odorant receptor activation in assay [1] came out at 0.896; in the assay on OR2J2 clone 1403, 0.687; with OR2J2 clone 1404, 0.708; in [2], 2.33; in the assay on OR2K2 clone 1340 it was 1.04; in the assay with OR2K2 clone 1450, 0.935. The odorant receptor activation in the assay on OR2L13 clone 1481 came to 0.928; in the assay with OR2L2 clone 1465, 1.23; in the assay on OR2L3 clone 1526, 1.08; in the assay with OR2L5 clone 1697, 1.24.
For the compound `C=CCSCC=C` [diallyl sulfide], the odorant receptor activation is 1.18 in [1]; 1.07 with OR2J2 clone 1403; 1.07 in the assay with OR2J2 clone 1404; 1.34 in [2]; 1.04 in the assay with OR2K2 clone 1340; 1.17 in the assay with OR2K2 clone 1450. In addition, the odorant receptor activation in the assay with OR2L13 clone 1481 was determined as 1.13; in the assay on OR2L2 clone 1465, 1.33; with OR2L3 clone 1526, 1.35; in the assay on OR2L5 clone 1697, 0.834.
Consider `CCC1(O)C2(C)CCC(C2)C1(C)C` (stereo not given) [2-ethylfenchol], for which the odorant receptor activation in assay [1] is 0.549; in the assay on OR2J2 clone 1403, 0.401; with OR2J2 clone 1404, 0.913; in [2], 1.1; in the assay on OR2K2 clone 1340 it was 0.481; in the assay on OR2K2 clone 1450, 0.627. Further, the odorant receptor activation in the assay with OR2L13 clone 1481 was found to be 1.2; in the assay on OR2L2 clone 1465, 1.27; with OR2L3 clone 1526 it was 1.34; in the assay with OR2L5 clone 1697, 0.774.
For `CCCCO` [1-butanol], the odorant receptor activation in assay [1] was determined as 0.73; with OR2J2 clone 1403, 0.564; in the assay with OR2J2 clone 1404 it was 1.19; in [2] it was 1.75; in the assay with OR2K2 clone 1340, 0.347; in the assay on OR2K2 clone 1450, 0.961. Besides, the odorant receptor activation in the assay on OR2L13 clone 1481 turned out to be 1.02; in the assay on OR2L2 clone 1465, 1.04; with OR2L3 clone 1526 it was 1.11; in the assay on OR2L5 clone 1697, 0.72.
Turning to `CCCCCCCC=CC=O` [2-decenal], the odorant receptor activation in [1] amounted to 1.15; in the assay with OR2J2 clone 1403 it was 1.07; with OR2J2 clone 1404, 2.09; in [2], 0.92; with OR2K2 clone 1340, 0.38; with OR2K2 clone 1450, 0.889. The odorant receptor activation in the assay on OR2L13 clone 1481 stood at 1.12; in the assay on OR2L2 clone 1465, 1.86; with OR2L3 clone 1526 it was 2.04; in the assay on OR2L5 clone 1697, 0.974.
In the case of `CCCCCOC(C)=O` [n-amyl acetate], the odorant receptor activation was 0.748 in assay [1]; 0.981 in the assay on OR2J2 clone 1403; 0.737 in the assay on OR2J2 clone 1404; 0.662 in [2]; 0.756 in the assay with OR2K2 clone 1340; 0.658 and 0.845 with OR2K2 clone 1450. In addition, the odorant receptor activation with OR2L13 clone 1481 was 0.678 and 0.989; with OR2L2 clone 1465 it was 0.507 and 0.972; in the assay with OR2L3 clone 1526, 0.734 and 0.856; in the assay on OR2L5 clone 1697 it was 1.01.
Regarding `COc1cc(C=O)ccc1O` [vanillin], the odorant receptor activation in [1] turned out to be 0.823; in the assay with OR2J2 clone 1403, 0.995; with OR2J2 clone 1404, 2.91; in [2], 0.97; with OR2K2 clone 1340, 0.8; in the assay with OR2K2 clone 1450, 0.797. In addition, the odorant receptor activation with OR2L13 clone 1481 was 0.924; in the assay on OR2L2 clone 1465, 1.01; in the assay on OR2L3 clone 1526, 0.815; in the assay on OR2L5 clone 1697 it was 1.01.
Take `c1ccc(Oc2ccccc2)cc1` [diphenyl ether]: the odorant receptor activation came out at 1.19 in [1]; 1.12 in the assay on OR2J2 clone 1403; 1.32 in the assay on OR2J2 clone 1404; 1.47 in assay [2]; 0.954 with OR2K2 clone 1340; 1.03 in the assay on OR2K2 clone 1450. The odorant receptor activation worked out at 1.09 with OR2L13 clone 1481, 1.37 in the assay with OR2L2 clone 1465, 0.88 with OR2L3 clone 1526 and 0.818 in the assay on OR2L5 clone 1697.

These data come from the odorant receptor screen of Mainland et al. (2015).
